Data from paper PMC8105379.
Results are given in words; binding and its absence hold for the method and conditions named. In cells and extracts the contact can be indirect. Some entries that bind do so weakly or less than the wild type.

Chains of the proteins cited; added tags and fusions are not shown.
UniProt Q8TEQ6: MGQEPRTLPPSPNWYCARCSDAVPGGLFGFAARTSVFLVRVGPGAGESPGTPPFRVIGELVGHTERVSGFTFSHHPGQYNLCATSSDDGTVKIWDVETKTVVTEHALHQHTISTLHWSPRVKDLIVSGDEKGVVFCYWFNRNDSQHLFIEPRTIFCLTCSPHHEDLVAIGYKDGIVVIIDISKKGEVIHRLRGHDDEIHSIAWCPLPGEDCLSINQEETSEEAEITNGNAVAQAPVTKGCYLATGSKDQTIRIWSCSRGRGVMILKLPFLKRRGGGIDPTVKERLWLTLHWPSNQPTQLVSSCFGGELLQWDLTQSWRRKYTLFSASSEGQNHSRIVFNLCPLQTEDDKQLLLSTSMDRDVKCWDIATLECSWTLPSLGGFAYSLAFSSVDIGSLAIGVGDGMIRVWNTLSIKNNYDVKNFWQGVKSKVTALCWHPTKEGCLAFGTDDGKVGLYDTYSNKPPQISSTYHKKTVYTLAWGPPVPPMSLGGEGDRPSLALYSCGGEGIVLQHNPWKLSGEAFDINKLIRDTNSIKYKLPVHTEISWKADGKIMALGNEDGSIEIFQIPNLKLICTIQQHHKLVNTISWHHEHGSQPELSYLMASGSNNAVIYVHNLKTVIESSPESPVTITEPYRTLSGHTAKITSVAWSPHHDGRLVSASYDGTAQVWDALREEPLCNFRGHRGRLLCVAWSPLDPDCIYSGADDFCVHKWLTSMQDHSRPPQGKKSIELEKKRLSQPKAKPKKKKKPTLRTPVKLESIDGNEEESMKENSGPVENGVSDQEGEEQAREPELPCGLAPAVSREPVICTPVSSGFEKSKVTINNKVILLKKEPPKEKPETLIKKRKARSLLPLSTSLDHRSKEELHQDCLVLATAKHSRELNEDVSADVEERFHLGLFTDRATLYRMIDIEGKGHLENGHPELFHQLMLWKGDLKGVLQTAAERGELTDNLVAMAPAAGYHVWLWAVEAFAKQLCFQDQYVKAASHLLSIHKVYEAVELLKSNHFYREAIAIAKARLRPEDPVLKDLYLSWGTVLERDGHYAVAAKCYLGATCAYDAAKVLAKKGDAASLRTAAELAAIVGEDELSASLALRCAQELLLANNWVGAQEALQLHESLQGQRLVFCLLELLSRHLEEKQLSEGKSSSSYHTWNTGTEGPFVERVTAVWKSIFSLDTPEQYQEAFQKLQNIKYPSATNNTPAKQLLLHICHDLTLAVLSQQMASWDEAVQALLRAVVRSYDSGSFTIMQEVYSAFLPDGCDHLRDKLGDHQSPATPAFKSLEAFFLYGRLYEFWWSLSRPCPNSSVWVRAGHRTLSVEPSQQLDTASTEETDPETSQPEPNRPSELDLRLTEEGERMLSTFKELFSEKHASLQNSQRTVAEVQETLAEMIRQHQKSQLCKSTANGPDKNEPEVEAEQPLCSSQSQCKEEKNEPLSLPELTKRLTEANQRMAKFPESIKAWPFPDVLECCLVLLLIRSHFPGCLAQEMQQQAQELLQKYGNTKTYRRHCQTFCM
UniProt Q16637: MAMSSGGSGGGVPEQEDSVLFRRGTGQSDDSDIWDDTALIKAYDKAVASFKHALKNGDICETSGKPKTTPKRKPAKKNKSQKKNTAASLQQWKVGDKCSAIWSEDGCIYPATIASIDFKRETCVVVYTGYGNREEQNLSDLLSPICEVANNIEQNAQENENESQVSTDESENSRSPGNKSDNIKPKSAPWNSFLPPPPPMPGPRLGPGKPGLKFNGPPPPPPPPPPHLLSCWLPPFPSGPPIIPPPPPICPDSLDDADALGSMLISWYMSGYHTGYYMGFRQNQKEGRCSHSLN
UniProt Q9UHI6: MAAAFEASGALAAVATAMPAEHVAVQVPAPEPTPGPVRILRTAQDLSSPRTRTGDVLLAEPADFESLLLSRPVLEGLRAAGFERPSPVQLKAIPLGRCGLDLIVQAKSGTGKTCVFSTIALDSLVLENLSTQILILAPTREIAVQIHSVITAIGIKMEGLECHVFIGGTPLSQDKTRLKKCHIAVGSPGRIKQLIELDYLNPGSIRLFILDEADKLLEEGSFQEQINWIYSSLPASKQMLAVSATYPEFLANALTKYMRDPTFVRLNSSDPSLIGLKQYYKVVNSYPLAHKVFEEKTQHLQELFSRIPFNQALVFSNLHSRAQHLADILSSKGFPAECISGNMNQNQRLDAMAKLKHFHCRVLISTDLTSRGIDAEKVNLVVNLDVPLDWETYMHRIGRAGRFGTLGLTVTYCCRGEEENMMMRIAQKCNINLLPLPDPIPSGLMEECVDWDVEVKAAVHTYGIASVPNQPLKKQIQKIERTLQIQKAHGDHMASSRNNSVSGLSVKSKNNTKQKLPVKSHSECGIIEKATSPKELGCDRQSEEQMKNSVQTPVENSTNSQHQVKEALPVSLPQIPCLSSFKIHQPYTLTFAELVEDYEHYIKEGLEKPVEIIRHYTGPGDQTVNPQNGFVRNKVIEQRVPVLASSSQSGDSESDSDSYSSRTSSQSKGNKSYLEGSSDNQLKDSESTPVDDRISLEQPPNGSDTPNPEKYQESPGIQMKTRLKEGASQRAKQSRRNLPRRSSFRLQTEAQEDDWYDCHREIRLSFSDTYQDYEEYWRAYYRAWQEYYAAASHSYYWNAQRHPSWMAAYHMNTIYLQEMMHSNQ
UniProt P57678: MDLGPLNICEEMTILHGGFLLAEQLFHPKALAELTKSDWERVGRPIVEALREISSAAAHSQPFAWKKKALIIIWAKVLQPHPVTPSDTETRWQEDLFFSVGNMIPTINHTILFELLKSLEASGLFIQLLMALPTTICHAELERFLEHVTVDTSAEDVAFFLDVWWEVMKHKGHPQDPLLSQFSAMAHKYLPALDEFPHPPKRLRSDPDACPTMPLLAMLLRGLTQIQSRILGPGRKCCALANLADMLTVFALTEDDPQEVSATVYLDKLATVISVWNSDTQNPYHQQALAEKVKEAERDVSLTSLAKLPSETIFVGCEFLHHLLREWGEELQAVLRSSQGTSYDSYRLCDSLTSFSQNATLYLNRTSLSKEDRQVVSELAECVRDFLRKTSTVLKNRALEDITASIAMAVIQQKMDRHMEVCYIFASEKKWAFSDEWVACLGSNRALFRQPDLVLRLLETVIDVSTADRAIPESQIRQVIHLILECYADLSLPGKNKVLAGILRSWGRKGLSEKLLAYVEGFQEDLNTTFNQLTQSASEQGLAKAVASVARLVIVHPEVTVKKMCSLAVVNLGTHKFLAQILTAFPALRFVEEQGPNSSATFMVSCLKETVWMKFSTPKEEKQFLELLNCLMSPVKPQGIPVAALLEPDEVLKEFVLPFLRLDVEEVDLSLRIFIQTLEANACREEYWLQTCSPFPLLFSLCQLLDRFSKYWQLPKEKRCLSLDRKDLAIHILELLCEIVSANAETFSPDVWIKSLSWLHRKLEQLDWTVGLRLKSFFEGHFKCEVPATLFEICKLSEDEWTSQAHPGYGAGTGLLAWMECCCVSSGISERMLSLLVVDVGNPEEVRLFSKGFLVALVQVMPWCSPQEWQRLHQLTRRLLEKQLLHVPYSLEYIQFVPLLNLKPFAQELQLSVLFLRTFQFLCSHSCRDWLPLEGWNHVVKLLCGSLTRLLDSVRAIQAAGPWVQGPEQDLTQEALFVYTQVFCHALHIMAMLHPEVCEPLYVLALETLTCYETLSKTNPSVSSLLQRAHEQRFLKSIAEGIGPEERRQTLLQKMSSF

Each substance was assayed against HA-tagged GEMIN5 WT (human) (UniProt Q8TEQ6) (assay: co-IP; lysates of HEK cells expressing HA-tagged GEMIN5, L1068P or H913R in 10 mM Tris-HCl pH 7.5, 100 mM NaCl, 2.5 mM MgCl2, 0.1% NP40, 2 mM DTT; anti-HA antibody overnight at 4 °C, Protein A Dynabeads 3 h at 4 °C; blots for HA, GEMIN4, GEMIN3 and SMN).

binding, binds:
SMN (from UniProt Q16637 1-294)
GEMIN3 (from UniProt Q9UHI6 1-824)
GEMIN4 (from UniProt P57678 1-1058)
